Laboratory results: US20250066509A1

Assays:
[1] = molecular target: human βKlotho extracellular segment protein (human); test: Gator BLI; antibody captured on Protein A probe, human βKlotho ECD in solution
[2] = molecular target: human βKlotho extracellular segment protein (human); test: Gator BLI

B1: CB-8-23 (antibody, human IgG1, V domains shown)
VH: EVQLVQSGAEVKKPGASVKVSCKASGYTFTSGGISWVRQAPGQGLEWMGWISAYNGRTNYAQKLQGRVTMTTDTSTSTAYMELRSLRSDDTAVYYCATLYGSGSLYYWGQGTLVTVSS
VL: DIVMTQSPSSLSAPVGDRVTITCQASQDIRNYINWFQQKPGKAPKLLIYAASFLQSGVPSRFSGSGSGTDFTLTISSLQPEDFATYYCQQSYSTPQWTFGQGTKVEIK
[1]
  binding: binds
[2]
  binding: binds

Results are given in words; binding and its absence hold for the method and conditions named. Binding can be weak; no strength is given.
